From patent US20250353921A1
No constants are given. Whether binding was seen depends on the method and setting. Some entries that bind do so weakly or less than the wild type. Tags and fused reporters may be left off the sequences shown.

Protein sequences, listed by entry. Tags and fused reporters are not part of them. Lines headed by an entry give the natural chain unless they say otherwise; changes in a name come on top.
UniProt P43489: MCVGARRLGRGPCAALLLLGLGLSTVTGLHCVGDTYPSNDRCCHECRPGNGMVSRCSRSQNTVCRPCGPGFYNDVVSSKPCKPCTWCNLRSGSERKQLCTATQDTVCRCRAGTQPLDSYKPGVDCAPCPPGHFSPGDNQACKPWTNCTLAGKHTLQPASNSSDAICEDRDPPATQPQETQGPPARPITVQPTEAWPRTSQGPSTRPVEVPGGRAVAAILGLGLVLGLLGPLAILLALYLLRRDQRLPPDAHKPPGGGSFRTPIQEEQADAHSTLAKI

Columns and labels:
[1] = target: human OX40-CRD-avi-his (human) (UniProt P43489); assay: SPR kinetic screen (Biacore T200): test protein captured on an anti-human capture chip, human OX40 injected about 0-180 s, then dissociation; curves normalised to 0 at the end of the injection. The legend names human OX40-CRD-avi-his, the method human OX40-ECD-his at 1 µM
[2] = target: human OX40-ECD-his (human) (UniProt P43489); assay: SPR Biacore T200 kinetic screen, scFv-Fc captured, antigen at 1 µM

binding [1]: binds | binding [2]: binds
B1: MAB1 scFv-Fc fusion protein (Fc fusion, not shown: a dimerising Fc or GST)
chain: QVTLKESGPALVKPTQTLTLTCSFSGFSLSTSGMGVGWIRQPPGKALEWIAHIWWDDDKYYNTALKTRLTISKDTSKNQVVLTMTNMDPVDTATYYCARIDWDGFAYWGQGTLVTVSSGGGGSGGGGSGGGGSEIVLTQSPATLSLSPGERATLSCRASSSVSYMHWYQQKPGQAPRPWIYATSNRATGIPARFSGSGSGTDYTLTISSLEPEDFAVYYCQQFGAWPWTFGQGTKVEIKGGGG
